Source: the supplement of paper PMC3334620
Whole data set: some 33,000 sequences, median “E-score (-0.5 to 0.5)” near -0.0059, cut for the highest 2% near 0.26. This is one part of the list.

Molecular target: T1, Cin5 (UniProt P40917)
T1 sequence: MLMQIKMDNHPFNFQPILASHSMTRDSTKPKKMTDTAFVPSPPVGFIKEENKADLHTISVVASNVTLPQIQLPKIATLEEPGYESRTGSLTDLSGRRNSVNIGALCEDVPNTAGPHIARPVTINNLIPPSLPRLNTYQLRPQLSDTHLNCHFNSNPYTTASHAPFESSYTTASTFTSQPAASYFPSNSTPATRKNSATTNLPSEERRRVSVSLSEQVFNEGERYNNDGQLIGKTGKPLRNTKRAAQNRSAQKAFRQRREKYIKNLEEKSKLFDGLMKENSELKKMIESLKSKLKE
Assay: PBM E-score (8-mer binding enrichment) (E-score (-0.5 to 0.5)); higher = stronger / more preferred TF binding
Conditions: protein concentration: 100 nM; construct: GST-full length
Method in brief: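 Bound GST-tagged yeast transcription factors, applied at about 100-200 nM to double-stranded universal all-10-mer Agilent arrays, were detected with fluorescent anti-GST. Scans were normalised with masliner. A modified Wilcoxon-Mann-Whitney statistic, the E-score, was assigned to each ungapped eight-base word pooled with its reverse complement by the Universal PBM Analysis Suite.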

Row | Sequence | PBM E-score
1 | CGGGTTTA | 0.24
2 | ATCTCGAG | 0.0137
3 | GGGCTAAA | 0.0101
4 | CATTCTAG | -0.0534
5 | GCTAGGAA | -0.0357
6 | AGTGCTCG | -0.0307
7 | CCTACGCG | 0.00501
8 | CCAACAGA | 0.0276
9 | AGAGGCAA | -0.122
10 | GAGCAATC | 0.0442
11 | GGAGGCCA | -0.291
12 | ACCTTCTA | 0.00913
13 | GCCCCATA | 0.108
14 | ACACGTAC | -0.0415
15 | AGAGGCGA | -0.238
16 | CAACGGTC | -0.208
17 | AGCGATAA | 0.0116
18 | CGTTGAAC | -0.0849
19 | GGGTGGTA | -0.0602
20 | ACAGGCCT | -0.144
21 | CGTAACAC | 0.131
22 | CTTAGAGC | -0.0864
23 | AGCTTCCA | 0.0473
24 | ACAGAGGT | -0.00542
25 | GACCAGTA | -0.1

Individual results from the entries so far:
In PBM E-score, GGAGGCCA is listed with -0.291
In PBM E-score, CCAACAGA is listed with 0.0276

(cont.)

Row | Sequence | PBM E-score
26 | CCAACTTC | -0.0818
27 | ACCCCCAG | -0.441
28 | GTGAATTA | 0.216
29 | GCTTCCGA | 0.0269
30 | CTCTGTAA | -0.0837
31 | ATATGGTG | 0.105
32 | ATCTGCCG | 0.123
33 | CGGGGTAA | 0.0993
34 | CATTCGGA | 0.0388
35 | CCATCCAA | 0.00982
36 | ACAATTTC | 0.139
37 | CGTGCTAC | -0.209
38 | ACCTGGTC | -0.0997
39 | CGTTGTTC | -0.13
40 | CAAGTAAA | 0.0964
41 | CTGGTAGA | 0.0491
42 | CCACACGC | -0.0203
43 | GACCACGC | -0.211
44 | TCTCGCCA | 0.014
45 | CCAGCCCA | -0.261
46 | CCTGAGGC | -0.216
47 | CAAACGAC | 0.218
48 | AAAGCGTG | -0.0461
49 | AGGGCGAA | -0.119
50 | GATCGCCA | -0.0247

Row | Sequence | PBM E-score
51 | TGTCGGAA | -0.0356
52 | CATCCATG | 0.0198
53 | GACCGGAA | -0.0318
54 | GGGAAACA | -0.0209
55 | CCGAACGA | 0.086
56 | AGCCCGCG | -0.0699
57 | ATTTTTTA | 0.198
58 | AATGTATG | 0.118
59 | ACCCGTCT | -0.0849
60 | TCCTCACA | -0.155
61 | TACTAAAA | 0.197
62 | ACGGAGAG | 0.00731
63 | GAGAGTGA | 0.0691
64 | AAATGTCA | 0.0985
65 | CGGAATAC | 0.234
66 | ACACTCTA | 0.0582
67 | CATCCTAG | -0.0422
68 | AGGAAGAG | -0.259
69 | AGGTCTCA | -0.0655
70 | ATCGTACA | 0.103
71 | AGAACGAT | 0.0608
72 | ACTAGTAG | 0.101
73 | CTTCGACA | -0.14
74 | ATGCGCAC | 0.0881
75 | GACACCTC | -0.0446

Row | Sequence | PBM E-score
76 | CACTCTTA | 0.0625
77 | ACTCCAGA | -0.142
78 | GCGTGTCA | 0.113
79 | GCCCGGGC | -0.152
80 | CTTGAAAC | 0.174
81 | AATTAGGA | -0.025
82 | AATTTTTA | 0.166
83 | AACACCCG | 0.2
84 | ACACCGCA | -0.046
85 | CCCGCAAG | -0.22
86 | TGAGTGCA | 0.0371
87 | AAGAAGGA | 0.0598
88 | GAGTCAAC | -0.0718
89 | AAGGATAT | 0.146
90 | ATTAAGGG | -0.225
91 | CCGCAGAC | -0.194
92 | CGTTTTTC | -0.0208
93 | GACACCGC | -0.107
94 | ATAAGTAC | 0.188
95 | ACAGAGGC | -0.17
96 | CCAAGGCG | -0.163
97 | AAGATGAC | 0.051
98 | CAATCACC | 0.00466
99 | GGAAGTGA | 0.188
100 | AGATTGAG | 0.162

Row | Sequence | PBM E-score
101 | CAAAACGC | 0.0996
102 | CGCGCGCC | 0.0614
103 | ACTAAATC | 0.211
104 | CAGTATAG | 0.161
105 | AAAGATGA | 0.00284
106 | CACACGGC | -0.13
107 | GCAATTGA | 0.0995
108 | AATGAACT | 0.0769
109 | TCATCCAA | 0.163
110 | CTGTTAGC | -0.112
111 | GCGGGAGA | -0.183
112 | CGTGTTTA | -0.0391
113 | CGCGGACA | 0.022
114 | AACGGGGA | -0.0504
115 | GCCAAGGA | -0.199
116 | CGCTTTAC | 0.0233
117 | GCCTGCGA | -0.218
118 | GTCTGTGA | 0.0584
119 | AGTACTGC | -0.0121
120 | ATGTGCTG | 0.171
121 | TCTAACAA | 0.00087
122 | TCCCGGCA | -0.157
123 | CCAATCAC | 0.00965
124 | CCACCCCC | -0.351
125 | CTTGTATA | 0.0725

Seven entries picked at random from the list so far:
Row | Sequence | PBM E-score
57 | ATTTTTTA | 0.198
31 | ATATGGTG | 0.105
21 | CGTAACAC | 0.131
58 | AATGTATG | 0.118
108 | AATGAACT | 0.0769
27 | ACCCCCAG | -0.441
87 | AAGAAGGA | 0.0598

More records

Row | Sequence | PBM E-score
126 | CAAGAAAG | -0.00671
127 | AGGAACCA | -0.189
128 | CCTTTGCG | 0.123
129 | AATTCTAT | -0.11
130 | GGCCCGTA | -0.0747
131 | ACTGAATC | -0.0604
132 | GAGTCGTA | 0.00969
133 | GTTGTGTA | 0.082
134 | AGCCCTGA | -0.281
135 | AGGAATCA | 0.172
136 | ACAGTGTC | -0.121
137 | TGTCAAAA | 0.062
138 | ATTTTGGA | 0.0917
139 | CACTTCCC | 0.0115
140 | AATTGTAT | 0.0937
141 | AAAAAAGG | 0.079
142 | CTCTAGGA | -0.304
143 | CTGAAATC | 0.0664
144 | CTTCACCA | -0.16
145 | ACACTCAG | 0.0773
146 | AGGAAATA | 0.164
147 | CCGTACGA | -0.0276
148 | CCGGCCGC | -0.244
149 | CCCACGTA | -0.0439
150 | AGTCATGC | -0.102

Row | Sequence | PBM E-score
151 | GAAAATCA | -0.0353
152 | CAGGACAA | 0.0897
153 | GATCCGGA | 0.00936
154 | ATAGCATC | 0.0969
155 | AATTTCGC | 0.189
156 | ATACGGCG | 0.0741
157 | ATATTTAG | 0.137
158 | AGGAATAC | 0.037
159 | TGGGGCAA | -0.00192
160 | GCGGTCGA | 0.1
161 | CGGGTATC | -0.0389
162 | ATACACAG | 0.0336
163 | GGGTTATA | -0.146
164 | CATAAAGC | -0.0627
165 | CGCCAGAA | -0.135
166 | CATTCCAA | 0.029
167 | TTAGGAAA | -0.0577
168 | AAGCTCCA | -0.0944
169 | ACCGGCCC | -0.294
170 | CTAGAAGA | -0.0876
171 | GATCGTTA | 0.0193
172 | CCAGGCGA | -0.168
